These are yes or no findings as the source states them, for the method shown. Binding seen in cells or lysates may run through a third protein. A yes stands for co-enrichment or nearness to the bait. Other partners may have been found.
B1: SFXN1 (protein, UniProt Q9H9B4 1-322)
chain: MSGELPPNINIKEPRWDQSTFIGRANHFFTVTDPRNILLTNEQLESARKIVHDYRQGIVPPGLTENELWRAKYIYDSAFHPDTGEKMILIGRMSAQVPMNMTITGCMMTFYRTTPAVLFWQWINQSFNAVVNYTNRSGDAPLTVNELGTAYVSATTGAVATALGLNALTKHVSPLIGRFVPFAAVAAANCINIPLMRQRELKVGIPVTDENGNRLGESANAAKQAITQVVVSRILMAAPGMAIPPFIMNTLEKKAFLKRFPWMSAPIQVGLVGFCLVFATPLCCALFPQKSSMSVTSLEAELQAKIQESHPELRRVYFNKGL
B2: RRBP1 (protein, UniProt Q9P2E9 1-1410)
chain: MDIYDTQTLGVVVFGGFMVVSAIGIFLVSTFSMKETSYEEALANQRKEMAKTHHQKVEKKKKEKTVEKKGKTKKKEEKPNGKIPDHDPAPNVTVLLREPVRAPAVAVAPTPVQPPIIVAPVATVPAMPQEKLASSPKDKKKKEKKVAKVEPAVSSVVNSIQVLTSKAAILETAPKEVPMVVVPPVGAKGNTPATGTTQGKKAEGTQNQSKKAEGAPNQGRKAEGTPNQGKKTEGTPNQGKKAEGTPNQGKKAEGTPNQGKKAEGAQNQGKKVDTTPNQGKKVEGAPTQGRKAEGAQNQAKKVEGAQNQGKKAEGAQNQGKKGEGAQNQGKKAEGAQNQGKKAEGAQNQGKKAEGAQNQGKKAEGAQNQGKKAEGAQNQGKKAEGAQNQGKKVEGAQNQGKKAEGAQNQGKKAEGAQNQGKKAEGAQNQGKKAEGAQNQGKKAEGAQNQGKKAEGAQNQGKKAEGAQNQGKKVEGAQNQGKKAEGAQNQGKKAEGAQNQGKKAEGAQNQGQKGEGAQNQGKKTEGAQGKKAERSPNQGKKGEGAPIQGKKADSVANQGTKVEGITNQGKKAEGSPSEGKKAEGSPNQGKKADAAANQGKKTESASVQGRNTDVAQSPEAPKQEAPAKKKSGSKKKGEPGPPDADGPLYLPYKTLVSTVGSMVFNEGEAQRLIEILSEKAGIIQDTWHKATQKGDPVAILKRQLEEKEKLLATEQEDAAVAKSKLRELNKEMAAEKAKAAAGEAKVKKQLVAREQEITAVQARMQASYREHVKEVQQLQGKIRTLQEQLENGPNTQLARLQQENSILRDALNQATSQVESKQNAELAKLRQELSKVSKELVEKSEAVRQDEQQRKALEAKAAAFEKQVLQLQASHRESEEALQKRLDEVSRELCHTQSSHASLRADAEKAQEQQQQMAELHSKLQSSEAEVRSKCEELSGLHGQLQEARAENSQLTERIRSIEALLEAGQARDAQDVQASQAEADQQQTRLKELESQVSGLEKEAIELREAVEQQKVKNNDLREKNWKAMEALATAEQACKEKLLSLTQAKEESEKQLCLIEAQTMEALLALLPELSVLAQQNYTEWLQDLKEKGPTLLKHPPAPAEPSSDLASKLREAEETQSTLQAECDQYRSILAETEGMLRDLQKSVEEEEQVWRAKVGAAEEELQKSRVTVKHLEEIVEKLKGELESSDQVREHTSHLEAELEKHMAAASAECQNYAKEVAGLRQLLLESQSQLDAAKSEAQKQSDELALVRQQLSEMKSHVEDGDIAGAPASSPEAPPAEQDPVQLKTQLEWTEAILEDEQTQRQKLTAEFEEAQTSACRLQEELEKLRTAGPLESSETEEASQLKERLEKEKKLTSDLGRAATRLQELLKTTQEQLAREKDTVKKLQEQLEKAEDGSSSKEGTSV
B3: SART3 (protein, UniProt Q15020 1-963)
chain: MATAAETSASEPEAESKAGPKADGEEDEVKAARTRRKVLSRAVAAATYKTMGPAWDQQEEGVSESDGDEYAMASSAESSPGEYEWEYDEEEEKNQLEIERLEEQLSINVYDYNCHVDLIRLLRLEGELTKVRMARQKMSEIFPLTEELWLEWLHDEISMAQDGLDREHVYDLFEKAVKDYICPNIWLEYGQYSVGGIGQKGGLEKVRSVFERALSSVGLHMTKGLALWEAYREFESAIVEAARLEKVHSLFRRQLAIPLYDMEATFAEYEEWSEDPIPESVIQNYNKALQQLEKYKPYEEALLQAEAPRLAEYQAYIDFEMKIGDPARIQLIFERALVENCLVPDLWIRYSQYLDRQLKVKDLVLSVHNRAIRNCPWTVALWSRYLLAMERHGVDHQVISVTFEKALNAGFIQATDYVEIWQAYLDYLRRRVDFKQDSSKELEELRAAFTRALEYLKQEVEERFNESGDPSCVIMQNWARIEARLCNNMQKARELWDSIMTRGNAKYANMWLEYYNLERAHGDTQHCRKALHRAVQCTSDYPEHVCEVLLTMERTEGSLEDWDIAVQKTETRLARVNEQRMKAAEKEAALVQQEEEKAEQRKRARAEKKALKKKKKIRGPEKRGADEDDEKEWGDDEEEQPSKRRRVENSIPAAGETQNVEVAAGPAGKCAAVDVEPPSKQKEKAASLKRDMPKVLHDSSKDSITVFVSNLPYSMQEPDTKLRPLFEACGEVVQIRPIFSNRGDFRGYCYVEFKEEKSALQALEMDRKSVEGRPMFVSPCVDKSKNPDFKVFRYSTSLEKHKLFISGLPFSCTKEELEEICKAHGTVKDLRLVTNRAGKPKGLAYVEYENESQASQAVMKMDGMTIKENIIKVAISNPPQRKVPEKPETRKAPGGPMLLPQTYGARGKGRTQLSLLPRALQRPSAAAPQAENGPAAAPAVAAPAATEAPKMSNADFAKLFLRK
B4: TCOF1 (treacle ribosome biogenesis factor 1) (protein, UniProt Q13428 1-1488)
chain: MAEARKRRELLPLIYHHLLRAGYVRAAREVKEQSGQKCFLAQPVTLLDIYTHWQQTSELGRKRKAEEDAALQAKKTRVSDPISTSESSEEEEEAEAETAKATPRLASTNSSVLGADLPSSMKEKAKAETEKAGKTGNSMPHPATGKTVANLLSGKSPRKSAEPSANTTLVSETEEEGSVPAFGAAAKPGMVSAGQADSSSEDTSSSSDETDVEGKPSVKPAQVKASSVSTKESPARKAAPAPGKVGDVTPQVKGGALPPAKRAKKPEEESESSEEGSESEEEAPAGTRSQVKASEKILQVRAASAPAKGTPGKGATPAPPGKAGAVASQTKAGKPEEDSESSSEESSDSEEETPAAKALLQAKASGKTSQVGAASAPAKESPRKGAAPAPPGKTGPAVAKAQAGKREEDSQSSSEESDSEEEAPAQAKPSGKAPQVRAASAPAKESPRKGAAPAPPRKTGPAAAQVQVGKQEEDSRSSSEESDSDREALAAMNAAQVKPLGKSPQVKPASTMGMGPLGKGAGPVPPGKVGPATPSAQVGKWEEDSESSSEESSDSSDGEVPTAVAPAQEKSLGNILQAKPTSSPAKGPPQKAGPVAVQVKAEKPMDNSESSEESSDSADSEEAPAAMTAAQAKPALKIPQTKACPKKTNTTASAKVAPVRVGTQAPRKAGTATSPAGSSPAVAGGTQRPAEDSSSSEESDSEEEKTGLAVTVGQAKSVGKGLQVKAASVPVKGSLGQGTAPVLPGKTGPTVTQVKAEKQEDSESSEEESDSEEAAASPAQVKTSVKKTQAKANPAAARAPSAKGTISAPGKVVTAAAQAKQRSPSKVKPPVRNPQNSTVLARGPASVPSVGKAVATAAQAQTGPEEDSGSSEEESDSEEEAETLAQVKPSGKTHQIRAALAPAKESPRKGAAPTPPGKTGPSAAQAGKQDDSGSSSEESDSDGEAPAAVTSAQVIKPPLIFVDPNRSPAGPAATPAQAQAASTPRKARASESTARSSSSESEDEDVIPATQCLTPGIRTNVVTMPTAHPRIAPKASMAGASSSKESSRISDGKKQEGPATQVSKKNPASLPLTQAALKVLAQKASEAQPPVARTQPSSGVDSAVGTLPATSPQSTSVQAKGTNKLRKPKLPEVQQATKAPESSDDSEDSSDSSSGSEEDGEGPQGAKSAHTLGPTPSRTETLVEETAAESSEDDVVAPSQSLLSGYMTPGLTPANSQASKATPKLDSSPSVSSTLAAKDDPDGKQEAKPQQAAGMLSPKTGGKEAASGTTPQKSRKPKKGAGNPQASTLALQSNITQCLLGQPWPLNEAQVQASVVKVLTELLEQERKKVVDTTKESSRKGWESRKRKLSGDQPAARTPRSKKKKKLGAGEGGEASVSPEKTSTTSKGKAKRDKASGDVKEKKGKGSLGSQGAKDEPEEELQKGMGTVEGGDQSNPKSKKEKKKSDKRKKDKEKKEKKKKAKKASTKDSESPSQKKKKKKKKTAEQTV
B5: RETSAT (protein, UniProt Q6NUM9 19-610)
chain: KVYLGLFSGSSPNPFSEDVKRPPAPLVTDKEARKKVLKQAFSANQVPEKLDVVVIGSGFGGLAAAAILAKAGKRVLVLEQHTKAGGCCHTFGKNGLEFDTGIHYIGRMEEGSIGRFILDQITEGQLDWAPLSSPFDIMVLEGPNGRKEYPMYSGEKAYIQGLKEKFPQEEAIIDKYIKLVKVVSSGAPHAILLKFLPLPVVQLLDRCGLLTRFSPFLQASTQSLAEVLQQLGASSELQAVLSYIFPTYGVTPNHSAFSMHALLVNHYMKGGFYPRGGSSEIAFHTIPVIQRAGGAVLTKATVQSVLLDSAGKACGVSVKKGHELVNIYCPIVVSNAGLFNTYEHLLPGNARCLPGVKQQLGTVRPGLGMTSVFICLRGTKEDLHLPSTNYYVYYDTDMDQAMERYVSMPREEAAEHIPLLFFAFPSAKDPTWEDRFPGRSTMIMLIPTAYEWFEEWQAELKGKRGSDYETFKNSFVEASMSVVLKLFPQLEGKVESVTAGSPLTNQFYLAAPRGACYGADHDLGRLHPCVMASLRAQSPIPNLYLTGQDIFTCGLVGALQGALLCSSAILKRNLYSDLKNLDSRIRAQKKKN

Sequences of proteins named here, by UniProt entry; tags and fusion partners are left off.
UniProt Q9BYV9: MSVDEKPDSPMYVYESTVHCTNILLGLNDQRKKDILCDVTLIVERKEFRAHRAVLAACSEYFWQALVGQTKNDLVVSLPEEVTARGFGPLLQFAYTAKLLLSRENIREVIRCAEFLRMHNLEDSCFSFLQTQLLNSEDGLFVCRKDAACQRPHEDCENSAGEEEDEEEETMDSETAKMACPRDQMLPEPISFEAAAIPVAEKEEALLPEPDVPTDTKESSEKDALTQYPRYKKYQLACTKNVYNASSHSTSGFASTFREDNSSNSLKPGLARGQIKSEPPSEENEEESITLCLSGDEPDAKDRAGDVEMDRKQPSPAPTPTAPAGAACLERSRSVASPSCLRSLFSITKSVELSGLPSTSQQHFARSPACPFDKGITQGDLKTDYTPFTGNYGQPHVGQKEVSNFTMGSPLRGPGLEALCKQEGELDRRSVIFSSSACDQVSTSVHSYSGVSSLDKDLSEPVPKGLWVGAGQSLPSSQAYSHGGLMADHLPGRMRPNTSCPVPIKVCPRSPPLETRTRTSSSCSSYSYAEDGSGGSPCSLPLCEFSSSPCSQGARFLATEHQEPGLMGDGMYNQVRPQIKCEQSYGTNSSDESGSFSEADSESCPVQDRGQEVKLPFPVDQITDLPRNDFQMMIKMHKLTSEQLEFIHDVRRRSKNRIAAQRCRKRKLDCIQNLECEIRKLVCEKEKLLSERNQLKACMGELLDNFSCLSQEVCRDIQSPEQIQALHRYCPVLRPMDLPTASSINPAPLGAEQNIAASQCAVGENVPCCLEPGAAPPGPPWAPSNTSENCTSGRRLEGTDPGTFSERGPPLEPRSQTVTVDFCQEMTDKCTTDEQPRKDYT

Target: BACH2 (BTB and CNC homology 1, basic leucine zipper transcription factor 2) (human (endogenous in MEC-1)) (UniProt Q9BYV9)
Experiment: affinity purification with mass spectrometry; reciprocal co-immunoprecipitation with anti-BACH2 or anti-BCL6 from MEC-1 CLL cells, followed by Orbitrap mass spectrometry

binding | Binder
binds | B1
binds | B2
binds | B3
binds | B4
binds | B5
